Some of these results come from one statement about several compounds together.
Assays:
Format in all cases: in vivo
[1] = tested on: Plutella xylostella (Diamond Back Moth); assay: Plutella xylostella larvae test on artificial diet; details: 200 ppm (concentration in well 18 ppm), L2 larvae, 6 days, larval mortality, growth regulation
Method: (§1) This Example illustrates the pesticidal/insecticidal properties of compounds of formula (I). The tests were performed as follows:
(§2) Cotton leaf discs were placed on agar in a 24-well microtiter plate and sprayed with test solutions at an application rate of 200 ppm. After drying, the leaf discs were infested with 5 L1 larvae. The samples were checked for mortality, feeding behavior, and growth regulation 3 days after treatment (DAT). The following compounds gave at least 80% control of Spodoptera littoralis: A2, A6, A8, A9, A10, A11, A13, A15, A19, A20, A22, A25, A27, A29, A31, A33, A35, A41, A50, A55, A60, A65, A73, A88, A92, and A94. Heliothis virescens (Tobacco Budworm): Eggs (0-24 h old) were placed in 24-well microtiter plate on artificial diet and treated with test solutions at an application rate of 200 ppm (concentration in well 18 ppm) by pipetting. After an incubation period of 4 days, samples were checked for egg mortality, larval mortality and growth regulation. The following compounds gave at least 80% control of Heliothis virescens: A2, A3, A4, A5, A6, A7, A9, A10, A11, A13, A15, A19, A20, A22, A25, A26, A27, A28, A29, A31, A32, A33, A35, A38, A40, A41, A43, A46, A55, A59, A60, A65, A69, A70, A71, A73, A74, A75, A77, A79, A80, A82, A86, A88, A89, A90, A92, A94, A96, A98, and A100. Plutella xylostella (Diamond Back Moth): A 24-well microtiter plate (MTP) with artificial diet was treated with test solutions at an application rate of 200 ppm (concentration in well 18 ppm) by pipetting. After drying, the MTP's were infested with L2 larvae (7-12 per well). After an incubation period of 6 days, samples were checked for larval mortality and growth regulation. The following compounds gave at least 80% control of Plutella xylostella: A3, A4, A5, A6, A7, A8, A10, A15, A16, A18, A19, A20, A22, A25, A26, A27, A28, A29, A31, A32, A33, A35, A38, A40, A55, A69, A71, A73, A74, A75, A76, A77, A78, A80, A82, A86, A87, A88, A89, A92, A94, A96, A97, A98, and A99. Diabrotica balteata (Corn Root Worm): A 24-well microtiter plate (MTP) with artificial diet was treated with test solutions at an application rate of 200 ppm (concentration in well 18 ppm) by pipetting. After drying, the MTP's were infested with larvae (L2) (6-10 per well). After an incubation period of 5 days, samples were checked for larval mortality, and growth regulation. The following compounds gave at least 80% control of Diabrotica balteata: A5, A6, A7, A14, A15, A18, A24, A35, A53, A55, A70, A71, A75, A79, A84, A85, A88, A92, A93, A95, A96, A97, A98, A99, A100, A101, A102, A103, and A104. Myzus persicae (Green Peach Aphid): Each well of a 24-well microtiter plate is filled with 0.6 ml 30% sucrose solution, containing 12.5 ppm of the test compounds. The wells are covered with streched parafilm and infested with a mixed population of Myzus persicae. After an incubation period of 6 days, samples are checked for mortality (feeding activity). The following compounds gave at least 80% control of Myzus persicae: A4, A6, A10, A11, A15, A19, A20, A24, A27, A29, A33, A34, A36, A37, A39, A40, A41, A42, A43, A44, A45, A46, A47, A48, A49, A55, A60, and A82. Tetranychus urticae (Two-Spotted Spider Mite): Bean leaf discs on agar in 24-well microtiter plates were sprayed with test solutions at an application rate of 200 ppm. After drying, the leaf discs are infested with mite populations of mixed ages. 8 days later, discs are checked for egg mortality, larval mortality, and adult mortality. The following compounds gave at least 80% control of Tetranychus urticae: A6, A11, A15, A19, A20, A22, A26, A35, A58, and A64.

[2] = tested on: Myzus persicae (Green Peach Aphid); assay: Myzus persicae sucrose solution feeding test; details: 12.5 ppm in 30% sucrose solution, mixed population, 6 days; mortality (feeding activity)
Method: as §1, §2

[3] = tested on: Heliothis virescens (Tobacco Budworm); assay: Heliothis virescens egg test on artificial diet; details: 200 ppm (concentration in well 18 ppm), eggs 0-24 h old on artificial diet, 4 days; egg mortality, larval mortality, growth regulation
Method: as §1, §2

[4] = tested on: Tetranychus urticae (Two-Spotted Spider Mite); assay: Tetranychus urticae bean leaf disc spray test; details: 200 ppm sprayed on bean leaf discs, mite populations of mixed ages, 8 days; egg, larval, adult mortality
Method: as §1, §2

[5] = tested on: Diabrotica balteata (Corn Root Worm); assay: Diabrotica balteata larvae test on artificial diet; details: 200 ppm (concentration in well 18 ppm), L2 larvae, 5 days, larval mortality, growth regulation
Method: as §1, §2

[6] = tested on: Spodoptera littoralis (Egyptian Cotton Leafworm); assay: Spodoptera littoralis cotton leaf disc spray test; details: 200 ppm sprayed on cotton leaf discs, L1 larvae, mortality, feeding behavior, growth regulation 3 DAT
Method: as §1
Spodoptera littoralis (Egyptian Cotton Leafworm)
as §2

CCc1cc(C(F)(C(F)(F)F)C(F)(F)C(F)(F)F)cc(C)c1NC(=O)c1ccc(C(=O)NCc2ccccc2)c(C)c1 (stereo not drawn) [A4, N-1-Benzyl-N-4-[2-ethyl-4-(1,2,2,3,3,3-hexafluoro-1-trifluoromethyl-propyl)-6-methyl-phenyl]-2-methyl-terephthalamide]
at least 80%: control of Plutella xylostella [1] | control of Myzus persicae [2] | control of Heliothis virescens [3]

CCc1cc(C(F)(C(F)(F)F)C(F)(F)C(F)(F)F)cc(C)c1NC(=O)c1ccc(C(=O)NCc2ccccn2)c(C)c1 (stereo not drawn) [A6]
at least 80%: control of Plutella xylostella [1] | control of Myzus persicae [2] | control of Tetranychus urticae [4] | control of Diabrotica balteata [5] | control of Heliothis virescens [3] | control of Spodoptera littoralis [6]

CCc1cc(C(F)(C(F)(F)F)C(F)(F)C(F)(F)F)cc(C)c1NC(=O)c1ccc(C(=O)NCC2(O)CCCCC2)c(C)c1 (stereo not drawn) [A11]
at least 80%: control of Myzus persicae [2] | control of Tetranychus urticae [4] | control of Heliothis virescens [3] | control of Spodoptera littoralis [6]

CCc1cc(C(F)(C(F)(F)F)C(F)(F)C(F)(F)F)cc(C)c1NC(=O)c1ccc(C(=O)NCCC2OCCO2)c(C)c1 (stereo not drawn) [A19]
at least 80%: control of Plutella xylostella [1] | control of Myzus persicae [2] | control of Tetranychus urticae [4] | control of Heliothis virescens [3] | control of Spodoptera littoralis [6]

CCc1cc(C(F)(C(F)(F)F)C(F)(F)C(F)(F)F)cc(C)c1NC(=O)c1ccc(C(=O)NCC2CCCO2)c(C)c1 (stereo not drawn) [A20]
at least 80%: control of Plutella xylostella [1] | control of Myzus persicae [2] | control of Tetranychus urticae [4] | control of Heliothis virescens [3] | control of Spodoptera littoralis [6]

CCc1cc(C(F)(C(F)(F)F)C(F)(F)C(F)(F)F)cc(C)c1NC(=O)c1ccc(C(=O)NCCN2CCOCC2)c(C)c1 (stereo not drawn) [A22]
at least 80%: control of Plutella xylostella [1] | control of Tetranychus urticae [4] | control of Heliothis virescens [3] | control of Spodoptera littoralis [6]

CCc1cc(C(F)(C(F)(F)F)C(F)(F)C(F)(F)F)cc(C)c1NC(=O)c1ccc(C(=O)NCCSS(=O)(=O)O)c(C)c1 (stereo not drawn) [A24]
at least 80%: control of Myzus persicae [2] | control of Diabrotica balteata [5]

CCc1cc(C(F)(C(F)(F)F)C(F)(F)C(F)(F)F)cc(C)c1NC(=O)c1ccc(C(=O)NCc2cccc(Cl)c2)c(C)c1 (stereo not drawn) [A26]
at least 80%: control of Plutella xylostella [1] | control of Tetranychus urticae [4] | control of Heliothis virescens [3]

CCc1cc(C(F)(C(F)(F)F)C(F)(F)C(F)(F)F)cc(C)c1NC(=O)c1ccc(C(=O)NCc2ccc3c(c2)OCCO3)c(C)c1 (stereo not drawn) [A27]
at least 80%: control of Plutella xylostella [1] | control of Myzus persicae [2] | control of Heliothis virescens [3] | control of Spodoptera littoralis [6]

CCc1cc(C(F)(C(F)(F)F)C(F)(F)C(F)(F)F)cc(C)c1NC(=O)c1ccc(C(=O)NCc2ccc(-n3cccn3)cc2)c(C)c1 (stereo not drawn) [A29]
at least 80%: control of Plutella xylostella [1] | control of Myzus persicae [2] | control of Heliothis virescens [3] | control of Spodoptera littoralis [6]

CCc1cc(C(F)(C(F)(F)F)C(F)(F)C(F)(F)F)cc(C)c1NC(=O)c1ccc(C(=O)NCc2ccccc2N2CCCCC2)c(C)c1 (stereo not drawn) [A33]
at least 80%: control of Plutella xylostella [1] | control of Myzus persicae [2] | control of Heliothis virescens [3] | control of Spodoptera littoralis [6]

CCc1cc(C(F)(C(F)(F)F)C(F)(F)C(F)(F)F)cc(C)c1NC(=O)c1ccc(C(=O)NCc2ccc(Oc3ccccc3)cc2)c(C)c1 (stereo not drawn) [A34]
at least 80%: control of Myzus persicae [2]

CCc1cc(C(F)(C(F)(F)F)C(F)(F)C(F)(F)F)cc(C)c1NC(=O)c1ccc(C(=O)NCc2ccc(Cl)nc2)c(C)c1 (stereo not drawn) [A35]
at least 80%: control of Plutella xylostella [1] | control of Tetranychus urticae [4] | control of Diabrotica balteata [5] | control of Heliothis virescens [3] | control of Spodoptera littoralis [6]

CCc1cc(C(F)(C(F)(F)F)C(F)(F)C(F)(F)F)cc(C)c1NC(=O)c1ccc(C(=O)NC2CCN(Cc3ccccc3)C2)c(C)c1 (stereo not drawn) [A36]
at least 80%: control of Myzus persicae [2]

CCc1cc(C(F)(C(F)(F)F)C(F)(F)C(F)(F)F)cc(C)c1NC(=O)c1ccc(C(=O)NCCN2CCN(Cc3ccccc3)CC2)c(C)c1 (stereo not drawn) [A37]
at least 80%: control of Myzus persicae [2]

CCc1cc(C(F)(C(F)(F)F)C(F)(F)C(F)(F)F)cc(C)c1NC(=O)c1ccc(C(=O)Nc2cccc3ncccc23)c(C)c1 (stereo not drawn) [A41]
at least 80%: control of Myzus persicae [2] | control of Heliothis virescens [3] | control of Spodoptera littoralis [6]

CCc1cc(C(F)(C(F)(F)F)C(F)(F)C(F)(F)F)cc(C)c1NC(=O)c1ccc(C(=O)Nc2ccc(OC)cc2OC)c(C)c1 (stereo not drawn) [A42]
at least 80%: control of Myzus persicae [2]

CCc1cc(C(F)(C(F)(F)F)C(F)(F)C(F)(F)F)cc(C)c1NC(=O)c1ccc(C(=O)Nc2cccc(F)c2)c(C)c1 (stereo not drawn) [A43]
at least 80%: control of Myzus persicae [2] | control of Heliothis virescens [3]

CCc1cc(C(F)(C(F)(F)F)C(F)(F)C(F)(F)F)cc(C)c1NC(=O)c1ccc(C(=O)Nc2ccccc2SC)c(C)c1 (stereo not drawn) [A48]
at least 80%: control of Myzus persicae [2]

CCc1cc(C(F)(C(F)(F)F)C(F)(F)C(F)(F)F)cc(C)c1NC(=O)c1ccc(C(=O)Nc2ccc3ncsc3c2)c(C)c1 (stereo not drawn) [A49]
at least 80%: control of Myzus persicae [2]

CCc1cc(C(F)(C(F)(F)F)C(F)(F)C(F)(F)F)cc(C)c1NC(=O)c1ccc(C(=O)Nc2nc(C)cs2)c(C)c1 (stereo not drawn) [A55]
at least 80%: control of Plutella xylostella [1] | control of Myzus persicae [2] | control of Diabrotica balteata [5] | control of Heliothis virescens [3] | control of Spodoptera littoralis [6]

CCc1cc(C(F)(C(F)(F)F)C(F)(F)C(F)(F)F)cc(C)c1NC(=O)c1ccc(C(=O)Nc2ccc(Oc3ccccc3)nc2)c(C)c1 (stereo not drawn) [A64]
at least 80%: control of Tetranychus urticae [4]

CCc1cc(C(F)(C(F)(F)F)C(F)(F)C(F)(F)F)cc(C)c1NC(=O)c1ccc(C(=O)NCc2cccc(I)c2)c(C)c1 (stereo not drawn) [A82]
at least 80%: control of Plutella xylostella [1] | control of Myzus persicae [2] | control of Heliothis virescens [3]
